Experimental data as given in patent publication US9969688B2, “Roflumilast prodrugs” (HISAMITSU PHARMACEUTICAL CO., INC., priority 2014, dated 2018).
Some of these results come from one statement about several compounds together.

Experiments:
[1] = system: human liver enzyme fraction; assay: In vitro metabolism test (metabolic rate into roflumilast); type: in vitro ADME; conditions: treated with human liver enzyme fractions
Protocol: A human liver enzyme fraction was added to 100 mmol/L Tris-HCl buffer containing coenzymes (NADPH-producing) so as to achieve the concentration of 0.5 mg protein/mL and the resultant was pre-incubated at 37° C. for 5 minutes. A test compound was added to this solution so as to achieve the concentration of 0.1 μmol/L and the resultant was incubated at 37° C. for an hour. The reaction was then stopped by adding water-cooled acetonitrile. The resulting solution was filtered and then quantified by using LC-MS/MS to calculate the metabolic rate (%) into roflumilast. It is noted that “with heat treatment” in Table 1 means using a human liver enzyme fraction subjected to heat treatment before adding to thereby inactivate a metabolic enzyme therein.
Numerical values in Table 1 represent metabolic rates (%) into rofiumilast. […] Roflumilast was not produced when metabolic enzymes were inactivated by heat treatments prior to using the human liver enzyme fractions.

[2] = Evaluation test of skin permeability (Franz diffusion cell); type: in vitro ADME; conditions: hairless mouse skin, up to 24 hours
Protocol: Skin was excised from the back of a hairless mouse and the section of the skin was placed in a Franz diffusion cell (glass cell) so that a solution of each of test compounds (compounds of Examples, Comparative Example, or Reference Examples) was contacted with the epidermal side of the section of the skin (applied area: 1 cm^2). Phosphate buffered physiological saline (PBS) was used as a flow solution. The flow rate was set to 5 mL/hour and the temperature of thermoregulated bath was set to 32° C. Next, dimethyl sulfoxide was added to achieve the concentration of the test compound of 1 w/w % and the resultant was stirred thoroughly to prepare a solution of the test compound. The donor chamber of the Franz diffusion cell was charged with 100 μL of the resulting solution of the test compound. The flow solution was sampled every 2 hours until 24 hours after the charge of the test compound solution. The flow solutions sampled every 2 hours were diluted two-fold by adding acetonitrile and the diluted solution was centrifuged to give supernatants as an HPLC analytical sample. Each of the resulting analytical samples was analyzed by high performance liquid chromatography to calculate the maximum skin permeation rate (Jmax) and the cumulative amount of permeation for 24 hours. Roflumilast was used in Comparative Example 1.

SMILES	production of roflumilast by human liver enzyme fractions (in words) [1]	skin permeability (in words) [2]
N#CCN(C(=O)c1ccc(OC(F)F)c(OCC2CC2)c1)c1c(Cl)cncc1Cl [Example 1, N-cyanomethyl-N-(3,5-dichloropyrid-4-yl)-3-cyclopropylmethoxy-4-difluoromethoxybenzamide]	metabolized to roflumilast by enzymes from human liver	high skin permeability as compared with the compound of Comparative Example 1 (roflumilast)
O=C(c1ccc(OC(F)F)c(OCC2CC2)c1)N(CCO)c1c(Cl)cncc1Cl [Example 2, N-(3,5-dichloropyrid-4-yl)-N-(2-hydroxyethyl)-3-cyclopropylmethoxy-4-difluoromethoxybenzamide]	metabolized to roflumilast by enzymes from human liver	high skin permeability as compared with the compound of Comparative Example 1 (roflumilast)
CN(C(=O)c1ccc(OC(F)F)c(OCC2CC2)c1)c1c(Cl)cncc1Cl [Example 3, N-(3,5-dichloropyrid-4-yl)-N-methyl-3-cyclopropylmethoxy-4-difluoromethoxybenzamide]	metabolized to roflumilast by enzymes from human liver	high skin permeability as compared with the compound of Comparative Example 1 (roflumilast)
O=C(c1ccc(OC(F)F)c(OCC2CC2)c1)N(CC(O)CO)c1c(Cl)cncc1Cl (centres unmarked) [Example 4, N-(3,5-dichloropyrid-4-yl)-N-(2,3-dihydroxypropan-1-yl)-3-cyclopropylmethoxy-4-difluoromethoxybenzamide]	metabolized to roflumilast by enzymes from human liver	
O=C(c1ccc(OC(F)F)c(OCC2CC2)c1)N(CCCO)c1c(Cl)cncc1Cl [Example 5, N-(3,5-dichloropyrid-4-yl)-N-(3-hydroxypropan-1-yl)-3-cyclopropylmethoxy-4-difluoromethoxybenzamide]	metabolized to roflumilast by enzymes from human liver	high skin permeability as compared with the compound of Comparative Example 1 (roflumilast)
COCN(C(=O)c1ccc(OC(F)F)c(OCC2CC2)c1)c1c(Cl)cncc1Cl [Example 6, N-(3,5-dichloropyrid-4-yl)-N-methoxymethyl-3-cyclopropylmethoxy-4-difluoromethoxybenzamide]	metabolized to roflumilast by enzymes from human liver	high skin permeability as compared with the compound of Comparative Example 1 (roflumilast)
